Results taken from PubChem BioAssay AID504444 (National Center for Advancing Translational Sciences (NCATS), 2011).
Several values for one entry are separate records, joined by “and”; a condition that tells them apart may be missing. Equal values may be shown once. Screen size: about 360,000 compounds; about 7,500 (2.1%) were called active. Inconclusive results, whose numbers are uncertain, are shown with a selection of clear calls. The call rests on the fitted dose curve; in most records, active means well fitted inhibition curve with a large enough effect; inconclusive means small, poorly fitted or top-dose-only effect, or effect the other way; inactive means flat fitted curve, though single readings scatter. A potency beside an inconclusive call is a rough fit, not a confirmed value. Some structures have more than one record in an assay (separate samples or runs), and their calls can disagree.
Potency means the concentration at half of the fitted maximal effect.

Test: Nrf2 qHTS screen for inhibitors; further: nearly all actives have a fitted effect of over 60% in size
Details: A549 ARE-Fluc reporter, luciferase luminescence, 18-24 h; series mostly up to 46 µM
Procedure, shortened: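 In this cell-based qHTS, ARE-driven firefly luciferase in A549 cells reports Nrf2 activity; the luminescent signal after BugLite lysis is the measured value, with a prior CellTiter-Fluor read for cell health.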
With `CCCC(C(=O)NCc1ccco1)N(C(=O)CNS(=O)(=O)c1ccccc1)C1CCCC1` (configuration not stated) the Potency was inconclusive: 29.1 µM [activator, single point].
With `COc1ccc(N2C(=O)CCC(C(=O)NCc3cccnc3)C2c2ccc(OC)c(OC)c2)cc1` (configuration not stated) the Potency was inconclusive: 0.731 µM [falling, partial curve, poor fit].
For `Cc1ccc(OCC(=O)Nc2cccc(O)c2)cc1C`, the Potency was “inactive”.
In the case of `c1ccc2[nH]c(SCc3cn4cccnc4n3)nc2c1`, the Potency is reported as inconclusive: 2.06 µM [activator, full curve].
In the case of `Cc1nc(CN2CCC(c3ccccc3)CC2)cc(=O)[nH]1`, the Potency is reported as inconclusive: 0.13 µM [activator, full curve, poor fit].
In the case of `O=C(Cc1ccc(S(=O)(=O)N2CCOCC2)s1)NCCC(c1ccccc1)c1ccccc1`, the Potency is reported as inconclusive: 20.6 µM [falling, partial curve, poor fit].
For `CC(C)/C(=N\NS(=O)(=O)c1ccc(Br)cc1)c1cccs1`, the Potency was inconclusive: 32.6 µM [falling, single point].
With `CC1(c2ccc(OC(F)F)cc2)NC(=O)N(CC(=O)Nc2ccc(Cl)cc2F)C1=O` (configuration not stated) the Potency was inconclusive: 29.1 µM [activator, single point].
In the case of `OCC(CO)(CO)n1cnnn1`, the Potency is reported as inconclusive: 29.1 µM [activator, single point].
For `CCOC(=O)C1CCN(C(=O)c2ccccc2NS(=O)(=O)c2ccc(F)c(F)c2)CC1`, the Potency was inconclusive: 18.4 µM [falling, single point].
With `O=S(=O)(c1ccc(NC(=S)NN=C(Cc2ccccc2)Cc2ccccc2)cc1)N1CCOCC1` the Potency was inconclusive: 29.1 µM [falling, single point].
In the case of `Cc1c(C(=O)N2CCN(c3ccc([N+](=O)[O-])cc3)CC2)oc2ccccc12`, the Potency is reported as inconclusive: 25.9 µM [activator, partial curve, poor fit].
For `O=C(NCC(c1cccnc1)N1CCN(c2ccccc2F)CC1)OCc1ccccc1` (configuration not stated), the Potency was active: 20.6 µM.
For `CN(c1ccccc1)S(=O)(=O)c1nnc(NC(=O)c2ccco2)s1`, the Potency was “inactive and active: 7.31 µM”.
For `O=C(CCc1ccccc1)NNC(=O)COc1ccc(Br)cc1`, the Potency was inconclusive: 29.1 µM [falling, single point].
In the case of `Clc1ccccc1CSc1nnc(-c2cccnc2)n1Cc1ccco1`, the Potency is reported as “inactive”.
With `O=[N+]([O-])c1cccc(/C=N/Nc2nccnc2Cl)c1` the Potency was inconclusive: 9.2 µM [activator, single point].
For `COc1ccc(NS(=O)(=O)c2cc(N/C(=N\S(=O)(=O)c3ccccc3)c3ccc(F)cc3)ccc2Cl)cc1`, the Potency was inconclusive: 29.1 µM [falling, single point].
For `Nc1nc(-c2ccccc2Cl)cs1`, the Potency was inconclusive: 29.1 µM [activator, single point].
In the case of `O=[N+]([O-])c1ccc(COc2cccc3cccnc23)cc1`, the Potency is reported as inconclusive: 5.17 µM [activator, full curve].
With `O=C(CCCc1nc(-c2ccccc2)no1)NCc1cccnc1` the Potency was inconclusive: 18.4 µM [falling, single point].
In the case of `CC(C)(C)NS(=O)(=O)c1ccc(NS(C)(=O)=O)cc1`, the Potency is reported as inconclusive: 6.51 µM [activator, single point].
In the case of `COCCN1Cc2cccc(C(=O)Nc3ccc(C(=O)OC)cc3)c2C1=O`, the Potency is reported as inconclusive: 1.84 µM [falling, partial curve, poor fit].
In the case of `O=c1ccn(Cc2ccc(F)cc2)c2ccnc(C(F)(F)F)c12`, the Potency is reported as inconclusive: 16.4 µM [falling, single point].
In the case of `CCc1nc(SCC(=O)N2CCCc3ccccc32)c2oc3ccccc3c2n1`, the Potency is reported as active: 16.4 µM.
In the case of `Cc1ccc(C(=O)NCc2ccncc2)cc1S(=O)(=O)Nc1cccc(C)c1C`, the Potency is reported as inconclusive: 32.6 µM [falling, partial curve, poor fit].
With `COc1ccccc1C(=O)Nc1ccc2nc(SCC(=O)N3CCCC3)sc2c1` the Potency was inconclusive: 0.82 µM [falling, full curve, poor fit].
In the case of `CN(C)c1cccc(NC(=O)c2ccco2)c1`, the Potency is reported as inconclusive: 25.9 µM [activator, single point].
With `O=C(Nc1ccccc1F)Nc1ccccc1F` the Potency was inconclusive: 0.517 µM [activator, full curve].
In the case of `Cn1c(=O)c2sccc2n2c(CCCC(=O)NC3CCN(Cc4ccccc4)CC3)nnc12`, the Potency is reported as “inactive”.
In the case of `CC(C)(C)c1ccc(C2(C)NC(=O)N(CC(=O)Nc3ccc4c(c3)OCO4)C2=O)cc1` (configuration not stated), the Potency is reported as inconclusive: 35.5 µM [falling, single point].
In the case of `CCOC(=O)C1=C(COC(=O)c2cc(S(=O)(=O)N(C)C)ccc2C)NC(=O)NC1C` (configuration not stated), the Potency is reported as “inactive”.
With `Cc1nn(C)cc1CNC(=O)CCC(=O)O` the Potency was inconclusive: 23.1 µM [activator, single point].
In the case of `CC1=NN(c2ccc(C)c(C)c2)C(=O)/C1=C\C=C\c1ccc([N+](=O)[O-])o1`, the Potency is reported as inconclusive: 20.6 µM [falling, single point].
With `Cn1c(=O)c2cc(S(=O)(=O)NCCC(=O)Nc3ccc(Cl)cc3)ccc2n(C)c1=O` the Potency was inconclusive: 16.4 µM [falling, partial curve, poor fit].
In the case of `COc1ccc(C(=O)NC2CCSC2=O)cc1` (configuration not stated), the Potency is reported as inconclusive: 2.31 µM [activator, full curve, poor fit].
For `CCOCCCNC1=C(Cl)C(=O)c2ccccc2C1=O`, the Potency was inconclusive: 29.1 µM [falling, single point].
With `Cc1ccc(NS(=O)(=O)c2ccc3c(c2)CCCC(=O)N3)cc1C` the Potency was inconclusive: 16.4 µM [falling, single point].
For `CCc1ccc(/C=C/c2c([N+](=O)[O-])c(=O)n(C)c(=O)n2C)cc1`, the Potency was active: 13 µM.
For `COc1ccc(OC)c(NC(=O)c2nc(S(=O)(=O)Cc3ccccc3)ncc2Cl)c1`, the Potency was inconclusive: 18.4 µM [falling, single point].
With `O=C(NC(NC(=S)Nc1cc(Cl)ccc1Cl)C(Cl)(Cl)Cl)c1ccco1` (configuration not stated) the Potency was “inactive”.
In the case of `CNC(=S)NNC(=O)c1sc2cc(C(F)(F)F)cnc2c1-c1ccccn1`, the Potency is reported as “inactive”.
